Experimental data reported in article PMC5922973, “Topoisomerase VI senses and exploits both DNA crossings and bends to facilitate strand passage” (eLife, 2018).
These are yes or no findings as the source states them, for the method shown. Some binding calls cover weakened binding; strength is not graded here.

Target: M. mazei Top6B cyslite-155C, Alexa555/Alexa647-labeled, in the topo VI holoenzyme (Methanosarcina mazei) (UniProt Q8PUB8)
Test: FRET or BRET; bulk FRET between Alexa555 and Alexa647 on Cys155 of the two Top6B in the holoenzyme; 200 nM topo VI without DNA, before and up to 120 min after 1 mM AMPPNP; 50 mM potassium glutamate, 20 mM HEPES-KOH pH 7.5, 10 mM MgCl2; both purified

B1: M. mazei Top6B cyslite-155C, Alexa555/Alexa647-labeled, in the topo VI holoenzyme (enzyme, Methanosarcina mazei)
chain: METPIAEELAKKQKSISVAEFFEKNRQILGFDSAPRSLITTVKEAVDNALDACEEAGILPDILVQVERTGPDYVTVIIEDNGPGIVREQIPKVFAKLLYGSRFHALKQSRGQQGIGISAAVLYAQMTAGRHTKILSKTSPTAPAHYYELMINTSCNEPDILVDEVRDWFRPHGTQIELEMRAAYVKGRRQSIYEYLKATAIVNPHARITLIDPDGNEEVFERATDKMPEPAEEILPHPEGIELGTLMKMLHYTERQKLAPFLRYSFSKIGLLTAEEIAKAAGLDPEIDPHALGRHEARKLIEAFEKVKIMAPPTDALSPIGEDLIYRGLEKETTVDFIATSTRKPAVYSGNPFVVEVGMAYGGNLPKEEKISIMRFANRVPLLYQQGGCVTTHAVEDIKWKQYGLNQPGGGIPVGPVILLIHVASINVPFTSESKDAIADIPVIKEEIDLAIKEVARKLKHYLSKQSNLKKRREKEIIITKVLPKLAAKVAHVLEKDVPDINPVVAKIMGNLLVHRVIKNNGDGTVDVAIKVKNFGTSAYSFRVHEMLPAKVSGAKPEPKVVTMGNDYDYVWDISASAGSSKVLSYKIESASEEELQKLPQLIVEGIEEELVTGAKAFKGV
modifications: Alexa Fluor 555 C2 maleimide or Alexa Fluor 647 C2 maleimide on Cys155
notes: Top6B of Methanosarcina mazei topo VI, 'cys-lite' with Thr155 changed to cysteine; Stood in the assay as part of the A2B2 holoenzyme with Top6A; population is a mix of donor-acceptor (50%), acceptor-acceptor (25%) and donor-donor (25%) labeled enzymes; also called topo VI^cyslite-155C; TopoVI^cyslite-155C; not shown: His6, N-terminal, cleaved
  binding: binds weakly
